# Test results taken from PubChem BioAssay AID330 (DTP/NCI, 2004).
# The list does not hold the whole screen: its compounds were picked by chemical class. Not every dose and run of a compound is shown. T/C gives the treated animals as a percentage of the vehicle group. Some doses have a count of surviving animals in place of a T/C: the source holds a T/C of zero for them, seemingly a mark for toxic or unscored doses. Some survivor counts are full or nearly so, which does not show that the dose was tolerated: the source hardly ever lists a survival T/C far under the control, and the zero likely stands for such cases as well. Counts of survivors are from the toxicity check (mostly the fifth day) where no day follows; animals may have died later. Schedules are NCI's codes, taken here to give the interval after Q, in days (D) or hours (H), and the number of doses after X. For survival time, this PubChem deposit counts one and a half times the control or more as active, and values a quarter to a half above the control carry no call in these data; other NCI protocols may use other cut-offs. Some entries hold several experiments; the values are given in rising order. Some T/C values are marked as having no survivor count here; that says nothing about deaths at the dose. Some molecules as drawn cover several salts, stereoisomers or complexes of the source; a dose is that of the sample tested. Some T/C values carry the count of animals alive at the toxicity check (mostly the fifth day); without a count or a note in brackets, all were alive then.
# System: P388 leukemia ip, CD2F1 mice, survival T/C
# Test: NCI In Vivo Anticancer Drug Screen. Data for tumor model P388 Leukemia (intraperitoneal) in CD2F1 (CDF1) mice
# Conditions: T/C endpoint: median survival time, higher T/C = longer survival
# [1] = dose: 50.0 mg/kg/injection, schedule: Q01DX009 (ip), vehicle: saline
# [2] = dose: 100.0 mg/kg/injection, schedule: Q01DX001 (ip), vehicle: Klucel (hydroxypropylcellulose) (HPC)
# [3] = dose: 100.0 mg/kg/injection, schedule: Q01DX009 (ip), vehicle: saline
# [4] = dose: 100.0 mg/kg/injection, schedule: Q04DX003 (ip), vehicle: Klucel (hydroxypropylcellulose) (HPC)
# [5] = dose: 200.0 mg/kg/injection, schedule: Q01DX001 (ip), vehicle: Klucel (hydroxypropylcellulose) (HPC)
# [6] = dose: 200.0 mg/kg/injection, schedule: Q01DX009 (ip), vehicle: saline
# [7] = dose: 200.0 mg/kg/injection, schedule: Q04DX003 (ip), vehicle: Klucel (hydroxypropylcellulose) (HPC)
# [8] = dose: 400.0 mg/kg/injection, schedule: Q01DX001 (ip), vehicle: Klucel (hydroxypropylcellulose) (HPC)
# [9] = dose: 400.0 mg/kg/injection, schedule: Q04DX003 (ip), vehicle: Klucel (hydroxypropylcellulose) (HPC)
# [10] = dose: 200.0 mg/kg/injection, schedule: Q01DX009 (ip), vehicle: Klucel (hydroxypropylcellulose) (HPC)
# [11] = dose: 400.0 mg/kg/injection, schedule: Q01DX009 (ip), vehicle: Klucel (hydroxypropylcellulose) (HPC)
# [12] = dose: 50.0 mg/kg/injection, schedule: Q01DX005 (ip), vehicle: saline
# [13] = dose: 100.0 mg/kg/injection, schedule: Q01DX005 (ip), vehicle: saline
# [14] = dose: 200.0 mg/kg/injection, schedule: Q01DX005 (ip), vehicle: saline
smiles,measurement,setting,value
CC(C)OP(C)(=O)O,T/C,"dose: 12.5 mg/kg/injection, schedule: Q01DX009 (ip), vehicle: saline with Tween-80",104 % of control [survivor count not shown]
same,T/C,"dose: 25.0 mg/kg/injection, schedule: Q01DX009 (ip), vehicle: saline with Tween-80",93 % of control [survivor count not shown]
same,T/C,"dose: 50.0 mg/kg/injection, schedule: Q01DX009 (ip), vehicle: saline with Tween-80",86 [survivor count not shown] and 87 % of control [survivor count not shown]
same,T/C,[1],95 % of control [survivor count not shown]
same,T/C,[2],110 % of control [survivor count not shown]
same,T/C,"dose: 100.0 mg/kg/injection, schedule: Q01DX009 (ip), vehicle: saline with Tween-80",95 [survivor count not shown] and 105 % of control [survivor count not shown]
same,T/C,[3],94 % of control [survivor count not shown]
same,T/C,"dose: 100.0 mg/kg/injection, schedule: Q04DX002 (ip), vehicle: saline with Tween-80",94 % of control [survivor count not shown]
same,T/C,[4],91 % of control [survivor count not shown]
same,T/C,"dose: 100.0 mg/kg/injection, schedule: Q04DX003 (ip), vehicle: saline",105 % of control [survivor count not shown]
same,T/C,[5],99 % of control [survivor count not shown]
same,T/C,[6],98 % of control [survivor count not shown]
same,T/C,"dose: 200.0 mg/kg/injection, schedule: Q04DX002 (ip), vehicle: saline with Tween-80",104 % of control [survivor count not shown]
same,T/C,[7],93 % of control [survivor count not shown]
same,T/C,"dose: 200.0 mg/kg/injection, schedule: Q04DX003 (ip), vehicle: saline",105 % of control [survivor count not shown]
same,T/C,[8],95 % of control [survivor count not shown]
same,T/C,"dose: 400.0 mg/kg/injection, schedule: Q01DX009 (ip), vehicle: saline",104 % of control [survivor count not shown]
same,T/C,"dose: 400.0 mg/kg/injection, schedule: Q04DX002 (ip), vehicle: saline with Tween-80",97 % of control [survivor count not shown]
same,T/C,[9],92 % of control [survivor count not shown]
same,T/C,"dose: 400.0 mg/kg/injection, schedule: Q04DX003 (ip), vehicle: saline",102 % of control [survivor count not shown]
O=P(NCCCO)(OCCCl)N(CCCl)CCCl (centres undefined),T/C,[1],95 % of control
same,T/C,[3],90 % of control
same,T/C,"dose: 100.0 mg/kg/injection, schedule: Q04DX003 (ip), vehicle: alcohol",104 % of control
same,T/C,[6],109 % of control
same,T/C,"dose: 200.0 mg/kg/injection, schedule: Q04DX003 (ip), vehicle: alcohol",113 % of control
same,T/C,"dose: 400.0 mg/kg/injection, schedule: Q04DX003 (ip), vehicle: alcohol",131 % of control
COc1c([N+](=O)[O-])cc([N+](=O)[O-])c(C=O)c1OS(=O)(=O)c1ccc(C)c([N+](=O)[O-])c1,survivor count,"dose: 25.0 mg/kg/injection, schedule: Q01DX009 (ip), vehicle: distilled water + Tween-80",6 of 6
same,T/C,"dose: 50.0 mg/kg/injection, schedule: Q01DX009 (ip), vehicle: distilled water + Tween-80",102 % of control
same,T/C,"dose: 100.0 mg/kg/injection, schedule: Q01DX009 (ip), vehicle: distilled water + Tween-80",100 % of control
same,T/C,"dose: 200.0 mg/kg/injection, schedule: Q01DX009 (ip), vehicle: distilled water + Tween-80",100 % of control
same,survivor count,"dose: 400.0 mg/kg/injection, schedule: Q01DX009 (ip), vehicle: distilled water + Tween-80",5 of 6
ClP1(Cl)=NP(Cl)(Cl)=NP(Cl)(Cl)=NP(Cl)(Cl)=N1,T/C,"dose: 12.5 mg/kg/injection, schedule: Q01DX009 (ip), vehicle: Klucel (hydroxypropylcellulose) (HPC)",102 and 106 % of control
same,T/C,"dose: 25.0 mg/kg/injection, schedule: Q01DX009 (ip), vehicle: Klucel (hydroxypropylcellulose) (HPC)","92, 94, 111 % of control"
same,T/C,"dose: 50.0 mg/kg/injection, schedule: Q01DX009 (ip), vehicle: Klucel (hydroxypropylcellulose) (HPC)","94, 100 [5 of 6 alive], 103 % of control"
same,T/C,"dose: 100.0 mg/kg/injection, schedule: Q01DX009 (ip), vehicle: Klucel (hydroxypropylcellulose) (HPC)","88, 93, 102 % of control"
same,T/C,[4],117 and 120 % of control
same,T/C,[10],103 and 111 % of control
same,survivor count,[10],6 of 6
same,T/C,[7],122 and 126 % of control
same,T/C,[11],103 and 115 % of control
same,survivor count,[11],5 of 6
same,T/C,[9],126 and 128 % of control
CCOCCOCCSP(C)(=O)OC(C)C (centres undefined),T/C,"dose: 0.75 mg/kg/injection, schedule: Q01DX005 (ip), vehicle: saline",102 % of control
same,T/C,"dose: 1.5 mg/kg/injection, schedule: Q01DX005 (ip), vehicle: saline",100 % of control
same,T/C,"dose: 3.0 mg/kg/injection, schedule: Q01DX005 (ip), vehicle: saline",105 % of control
O=[N+]([O-])c1cccc2no[n+]([O-])c12,T/C,"dose: 50.0 mg/kg/injection, schedule: Q01DX005 (ip), vehicle: saline with Tween-80",100 % of control
same,T/C,"dose: 100.0 mg/kg/injection, schedule: Q01DX005 (ip), vehicle: saline with Tween-80",93 % of control [4 of 6 alive]
same,survivor count,"dose: 200.0 mg/kg/injection, schedule: Q01DX005 (ip), vehicle: saline with Tween-80",3 of 6
[N-]=[N+]=NC/C(N)=N/O,T/C,[12],101 % of control
same,T/C,[13],107 % of control
same,T/C,[14],110 % of control
CC(C)OP(C)(=O)O.[Tl],T/C,"dose: 25.0 mg/kg/injection, schedule: Q04DX002 (ip), vehicle: saline with Tween-80",110 % of control [survivor count not shown]
same,T/C,"dose: 50.0 mg/kg/injection, schedule: Q04DX002 (ip), vehicle: saline with Tween-80",115 % of control [survivor count not shown]
Cc1cc(N(CCCl)CCCl)c2ccccc2c1,T/C,"dose: 37.5 mg/kg/injection, schedule: Q04DX003 (ip), vehicle: Klucel (hydroxypropylcellulose) (HPC)",195 % of control [5 of 6 alive]
same,T/C,"dose: 75.0 mg/kg/injection, schedule: Q04DX003 (ip), vehicle: Klucel (hydroxypropylcellulose) (HPC)",255 % of control
same,survivor count,"dose: 150.0 mg/kg/injection, schedule: Q04DX003 (ip), vehicle: Klucel (hydroxypropylcellulose) (HPC)",5 of 6
CCSC1c2ccccc2C(SCC)N(C#N)C1Br (centres undefined),T/C,"dose: 50.0 mg/kg/injection, schedule: Q01DX005 (ip), vehicle: distilled water + Tween-80 + alcohol",109 % of control
same,T/C,"dose: 100.0 mg/kg/injection, schedule: Q01DX005 (ip), vehicle: distilled water + Tween-80 + alcohol",106 % of control
same,T/C,"dose: 200.0 mg/kg/injection, schedule: Q01DX005 (ip), vehicle: distilled water + Tween-80 + alcohol",105 % of control
ClCCN1CCn2cnc3ncnc-3c21,T/C,[12],101 % of control
same,T/C,[13],104 % of control
same,T/C,[14],101 % of control
C=C1C(=O)C2CCN1CC2.O=[N+]([O-])c1cc([N+](=O)[O-])c(O)c([N+](=O)[O-])c1,T/C,[2],98 % of control
same,T/C,[5],99 % of control [5 of 6 alive]
same,T/C,[8],107 % of control
CCOP(=O)(O)CC.[Cr],T/C,[4],86 % of control [survivor count not shown]
same,T/C,[7],86 % of control [survivor count not shown]
same,T/C,[9],87 % of control [survivor count not shown]
CCOP1(=O)N=C(C)NC(C)=N1,T/C,"dose: 50.0 mg/kg/injection, schedule: Q01DX005 (ip), vehicle: Klucel (hydroxypropylcellulose) (HPC)",87 % of control [4 of 6 alive]
same,T/C,"dose: 100.0 mg/kg/injection, schedule: Q01DX005 (ip), vehicle: Klucel (hydroxypropylcellulose) (HPC)",97 % of control
same,T/C,"dose: 200.0 mg/kg/injection, schedule: Q01DX005 (ip), vehicle: Klucel (hydroxypropylcellulose) (HPC)",95 % of control
COP(C)(=O)O.CSC(=N)N,T/C,[1],100 % of control [survivor count not shown]
same,T/C,[3],99 % of control [survivor count not shown]
same,T/C,[6],101 % of control [survivor count not shown]
